Experimental data taken from PubChem BioAssay (NCATS).
Inconclusive results, whose numbers are uncertain, are shown with a selection of clear calls. Potencies of inconclusive entries are doubtful fits and often do not repeat. Calls of active or inactive are those of the source. Calls come from the whole dose curve; as a rule, active = well fitted curve in the direction sought with a large enough effect; inconclusive = small, poorly fitted or top-dose-only effect, or another doubt; inactive = no such curve, though single readings can be large; an effect the other way counts as inactive or inconclusive.

How the values were obtained:
[1] = Quantitative High-Throughput drug screen in 47 multiple myeloma cell lines against the NCATS MIPE library collection: ARP1_JJKsccF8 cell viability assay (AID 1918928; note: nearly all actives have a fitted effect of over 40% in size); conditions: ARP1 myeloma cells viability, CellTiter-Glo ATP, 48 h; viability: at 45.8 µM (top of the series)
How it was run: (§1)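 CellTiter-Glo luminescence after 48 h exposure gives viability, scaled between DMSO-only (100%) and media-only (0%) controls. Library compounds are pinned onto 500 myeloma cells per well, incubated at 37C with 5% CO2.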

[2] = Quantitative High-Throughput drug screen in 47 multiple myeloma cell lines against the NCATS MIPE library collection: ARD_JJKsccE7 cell viability assay (AID 1918929); conditions: ARD myeloma cell line viability, CellTiter-Glo, 48 h; viability: at 45.8 µM (top of the series) unless noted
How it was run: (§2)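 qHTS of the MIPE 4.0 collection: 500 myeloma cells/well, 48 h drug exposure at 37C in 5% CO2, then CellTiter-Glo for 5 min at room temperature before luminescence reading.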

[3] = Quantitative High-Throughput drug screen in 47 multiple myeloma cell lines against the NCATS MIPE library collection: Karpas417_ECACC cell viability assay (AID 1918961); conditions: Karpas417 myeloma viability, CellTiter-Glo ATP luminescence, 48 h; viability (% of DMSO): at 45.8 µM (top of the series) unless noted
How it was run: (§3)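 Relative luminescence from CellTiter-Glo served as the viability signal, referenced to DMSO-treated (100%) and cell-free medium (0%) controls. Treatment lasted 48 hours at 37C with 500 cells per well.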

[4] = Quantitative High-Throughput drug screen in 47 multiple myeloma cell lines against the NCATS MIPE library collection: JIM3_ECACC cell viability assay (AID 1918963; note: nearly all actives have a fitted effect of over 35% in size); conditions: JIM3 myeloma viability, CellTiter-Glo ATP, 48 h; viability, percent of control: at 45.8 µM (top of the series)
How it was run: as §3

[5] = Quantitative High-Throughput drug screen in 47 multiple myeloma cell lines against the NCATS MIPE library collection: JIM1_ECACC cell viability assay (AID 1918964); conditions: JIM1 myeloma viability, CellTiter-Glo ATP luminescence, 48 h; viability (% of DMSO): at 45.8 µM (top of the series)
How it was run: as §2

[6] = Quantitative High-Throughput drug screen in 47 multiple myeloma cell lines against the NCATS MIPE library collection: KMM1_JCRB cell viability assay (AID 1918960); conditions: KMM1 myeloma viability, CellTiter-Glo ATP luminescence, 48 h; viability (% of DMSO): at 45.8 µM (top of the series); note: nearly all actives have a fitted effect of over 30% in size
How it was run: as §1

[7] = Quantitative High-Throughput drug screen in 47 multiple myeloma cell lines against the NCATS MIPE library collection: KHM11_PLB cell viability assay (AID 1918962); conditions: KHM11 myeloma cell viability, CellTiter-Glo ATP luminescence, 48 h; viability, % of DMSO control: at 45.8 µM (top of the series); note: nearly all actives have a fitted effect of over 35% in size
How it was run: as §3

[8] = Quantitative High-Throughput drug screen in 47 multiple myeloma cell lines against the NCATS MIPE library collection: INA6_PLB cell viability assay (AID 1918965; note: nearly all actives have a fitted effect of over 55% in size); conditions: INA6 myeloma viability, CellTiter-Glo ATP luminescence, 48 h; viability (% of control): at 45.8 µM (top of the series)
How it was run: as §3

[9] = Quantitative High-Throughput drug screen in 47 multiple myeloma cell lines against the NCATS MIPE library collection: Karpas620_DSMZ cell viability assay (AID 1918959); conditions: Karpas620 myeloma viability, CellTiter-Glo ATP luminescence, 48 h; viability (% of DMSO): at 45.8 µM (top of the series); note: nearly all actives have a fitted effect of over 30% in size
How it was run: as §3
Potency is the fitted concentration of half-maximal effect.

CC(C)c1cnn2c(NCc3ccccc3)cc(N[C@@H](CO)[C@H](O)CO)nc12
active: Potency [1] 0.264 µM | Potency [2] 0.148 µM | Potency [3] 0.0833 µM | Potency [4] 0.235 µM | Potency [5] 0.132 µM

CC(C[N+](C)(C)C)OC(N)=O (stereo not drawn)
inactive: Potency [2] | Potency [6] | Potency [7] | Potency [5] | Potency [8]
inconclusive: Potency [1] 33.2 µM [cytotoxic, single point] | Potency [3] 1.05 µM [rising, full curve, poor fit]

Cn1c(=O)c(-c2c(Cl)cccc2Cl)cc2cnc(Nc3cccc(C(=O)O)c3)nc21
inconclusive: Potency [1] 1.48 µM [cytotoxic, partial curve, poor fit] | Potency [7] 0.0743 µM [cytotoxic, full curve, poor fit]
active: Potency [2] 0.469 µM | Potency [3] 0.059 µM | Potency [5] 0.0264 µM

NCCCC(O)(P(=O)(O)O)P(=O)(O)O
inconclusive: Potency [1] 0.0042 µM [rising, full curve, poor fit] | Potency [5] 11.8 µM [cytotoxic, single point]
inactive: Potency [2] | Potency [3] | Potency [7]

NC[C@H]1O[C@H](O[C@H]2[C@@H](O)[C@@H](O[C@H]3O[C@H](CO)[C@@H](O)[C@H](N)[C@@H]3O)[C@H](N)C[C@@H]2N)[C@H](N)C[C@H]1O
inactive: Potency [1] | Potency [2] | Potency [9] | Potency [6]
inconclusive: Potency [3] 11.8 µM [rising, single point] | Potency [7] 0.0037 µM [rising, full curve, poor fit] | Potency [5] 1.32 µM [cytotoxic, partial curve, poor fit] | Potency [8] 0.0187 µM [rising, full curve, poor fit]

Nc1ncnc2c1ncn2[C@@H]1O[C@H](CO)[C@@H](O)[C@@H]1O
inconclusive: Potency [7] 0.743 µM [cytotoxic, full curve, poor fit]
active: Potency [1] 23.5 µM | Potency [9] 5.26 µM | Potency [6] 1.32 µM | Potency [3] 0.118 µM | Potency [5] 7.43 µM

Cc1nn(Cc2ccccc2Cl)c(C)c1CN(C)CC(O)COc1ccc(Cl)cc1 (stereo not drawn)
inconclusive: Potency [1] 4.69 µM [cytotoxic, partial curve, poor fit] | Potency [2] 6.62 µM [cytotoxic, partial curve, poor fit] | Potency [9] 5.9 µM [cytotoxic, partial curve, poor fit] | Potency [3] 23.5 µM [rising, single point] | Potency [7] 26.4 µM [cytotoxic, partial curve, poor fit] | Potency [5] 6.62 µM [cytotoxic, partial curve, poor fit]

COc1cccc2c(NCc3ccccc3)nc(-n3c(N)nc4ccccc43)nc12
active: Potency [1] 7.43 µM | Potency [2] 4.69 µM | Potency [9] 1.48 µM | Potency [6] 1.66 µM | Potency [7] 3.32 µM | Potency [5] 1.87 µM
inconclusive: Potency [3] 0.332 µM [cytotoxic, full curve, poor fit]

CS(=O)(=O)c1ccc([C@@H](O)[C@@H](CO)NC(=O)C(Cl)Cl)cc1
inconclusive: Potency [1] 1.66 µM [cytotoxic, full curve, poor fit] | Potency [6] 8.33 µM [cytotoxic, partial curve, poor fit] | Potency [3] 0.166 µM [cytotoxic, full curve, poor fit] | Potency [7] 0.372 µM [cytotoxic, full curve, poor fit] | Potency [5] 9.35 µM [cytotoxic, partial curve, poor fit]
active: Potency [2] 13.2 µM

CCC1=C[C@@H]2CN(C1)Cc1c([nH]c3ccccc13)[C@@](C(=O)OC)(c1cc3c(cc1OC)N(C)[C@@H]1[C@@](O)(C(=O)OC)[C@H](OC(C)=O)[C@]4(CC)C=CCN5CC[C@]31[C@@H]54)C2
active: Potency [1] 0.0053 µM | Potency [2] 0.0074 µM
inconclusive: Potency [9] 0.0019 µM [cytotoxic, full curve] | Potency [3] 4.18 µM [cytotoxic, full curve] | Potency [7] 3.72 µM [cytotoxic, partial curve, poor fit] | viability (% of control) [8] 5.52% [cytotoxic]

Copied from above, two compounds:
Cn1c(=O)c(-c2c(Cl)cccc2Cl)cc2cnc(Nc3cccc(C(=O)O)c3)nc21
inconclusive: Potency [1] 1.48 µM [cytotoxic, partial curve, poor fit] | Potency [7] 0.0743 µM [cytotoxic, full curve, poor fit]
active: Potency [2] 0.469 µM | Potency [3] 0.059 µM | Potency [5] 0.0264 µM

NCCCC(O)(P(=O)(O)O)P(=O)(O)O
inconclusive: Potency [1] 0.0042 µM [rising, full curve, poor fit] | Potency [5] 11.8 µM [cytotoxic, single point]
inactive: Potency [2] | Potency [3] | Potency [7]

Additional results follow:

CC(C)CN(C[C@@H](O)[C@H](Cc1ccccc1)NC(=O)O[C@H]1CO[C@H]2OCC[C@H]21)S(=O)(=O)c1ccc(N)cc1
inactive: Potency [2] | Potency [5]
inconclusive: Potency [1] 5.26 µM [cytotoxic, full curve] | Potency [3] 3.72 µM [rising, partial curve, poor fit] | Potency [7] 20.9 µM [cytotoxic, single point]

CC(C=CC=C(C)C=CC1=C(C)CCCC1(C)C)=CC=CC=C(C)C=CC=C(C)C=CC1=C(C)CCCC1(C)C
inconclusive: Potency [1] 26.4 µM [cytotoxic, single point] | Potency [7] 0.0166 µM [rising, full curve] | Potency [5] 20.9 µM [cytotoxic, partial curve, poor fit]
active: Potency [2] 20.9 µM | Potency [3] 9.35 µM

OCCN1C[C@H](O)[C@@H](O)[C@H](O)[C@@H]1CO
inactive: Potency [1] | Potency [2]
inconclusive: Potency [6] 0.0012 µM [rising, full curve] | Potency [3] 4.18 µM [rising, full curve, poor fit] | Potency [7] 0.0662 µM [rising, full curve] | Potency [5] 0.0037 µM [cytotoxic, full curve, poor fit] | Potency [8] 0.132 µM [rising, full curve, poor fit]

O=C1Nc2ccc(I)cc2C1=Cc1cc(Br)c(O)c(Br)c1
inconclusive: Potency [1] 0.296 µM [rising, full curve, poor fit] | Potency [2] 26.4 µM [cytotoxic, partial curve, poor fit] | Potency [6] 23.5 µM [cytotoxic, partial curve] | Potency [3] 8.33 µM [cytotoxic, partial curve, poor fit] | Potency [7] 0.0187 µM [rising, full curve, poor fit] | Potency [5] 26.4 µM [cytotoxic, single point]
active: Potency [9] 14.8 µM

O[C@@H](CNC[C@H](O)[C@H]1CCc2cc(F)ccc2O1)[C@@H]1CCc2cc(F)ccc2O1
inconclusive: Potency [2] 33.2 µM [cytotoxic, single point] | Potency [3] 23.5 µM [cytotoxic, partial curve, poor fit] | Potency [5] 16.6 µM [cytotoxic, partial curve, poor fit]
active: Potency [1] 14.8 µM | Potency [7] 26.4 µM

NC(=O)c1cccc(-c2cccc(OC(=O)NC3CCCCC3)c2)c1
inactive: Potency [1] | Potency [2] | Potency [6] | Potency [7] | Potency [4] | Potency [5]
inconclusive: Potency [3] 0.132 µM [cytotoxic, full curve, poor fit] | Potency [8] 37.2 µM [cytotoxic, single point]

CC[C@H]1CN2CCc3cc(OC)c(OC)cc3[C@H]2C[C@@H]1C[C@@H]1NCCc2cc(OC)c(OC)cc21
active: Potency [1] 0.187 µM | Potency [9] 0.235 µM | Potency [6] 0.187 µM | Potency [7] 0.166 µM
inconclusive: Potency [3] 0.209 µM [cytotoxic, full curve, poor fit] | Potency [5] 0.0833 µM [cytotoxic, full curve, poor fit]

COc1ccc2c3n(c(=NC(=O)c4cccnc4)nc2c1OC)CCN3
active: Potency [1] 2.64 µM
inconclusive: Potency [2] 10.5 µM [cytotoxic, full curve, poor fit] | Potency [6] 11.8 µM [cytotoxic, single point] | Potency [7] 10.5 µM [cytotoxic, full curve] | Potency [5] 9.35 µM [cytotoxic, full curve]
inactive: Potency [3]

CC[C@H](C)n1cc(C)c2c(C(=O)NCc3c(C)cc(C)[nH]c3=O)cc(-c3ccc(N4CCNCC4)nc3)cc21
inactive: Potency [5]
active: Potency [7] 29.6 µM | Potency [8] 18.7 µM
inconclusive: Potency [1] 5.26 µM [cytotoxic, partial curve, poor fit] | Potency [2] 0.0019 µM [rising, full curve, poor fit] | Potency [3] 0.0026 µM [rising, full curve, poor fit] | Potency [4] 33.2 µM [cytotoxic, single point]

CCOC(=O)[C@H](CCc1ccccc1)N[C@@H](C)C(=O)N1CCCC1C(=O)O (stereo partly drawn)
inconclusive: Potency [3] 0.0372 µM [cytotoxic, full curve, poor fit] | Potency [5] 0.003 µM [cytotoxic, full curve, poor fit] | Potency [8] 0.372 µM [rising, full curve, poor fit]
inactive: Potency [1] | Potency [2] | Potency [7]
